Laboratory results: the supplement of paper PMC10849652
Some of the results follow. Residues, ends and D or L forms follow the SMILES beside them. *: point of attachment. Cbz = O=C(OCc1ccccc1)*

The chains behind the UniProt entries cited, without tags or fusion partners. Where a name states a change or a piece, a line headed by the entry shows the natural chain unless it says otherwise.
UniProt Q14011: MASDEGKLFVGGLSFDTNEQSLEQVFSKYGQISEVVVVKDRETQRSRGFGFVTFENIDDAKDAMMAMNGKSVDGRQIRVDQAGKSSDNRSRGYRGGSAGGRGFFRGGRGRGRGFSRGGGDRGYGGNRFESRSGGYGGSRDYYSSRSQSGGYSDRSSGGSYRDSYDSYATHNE
UniProt Q5JTJ3: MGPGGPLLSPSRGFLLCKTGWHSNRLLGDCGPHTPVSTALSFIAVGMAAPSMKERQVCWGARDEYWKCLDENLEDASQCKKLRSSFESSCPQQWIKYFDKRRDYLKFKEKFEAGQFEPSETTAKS
UniProt Q96KP4: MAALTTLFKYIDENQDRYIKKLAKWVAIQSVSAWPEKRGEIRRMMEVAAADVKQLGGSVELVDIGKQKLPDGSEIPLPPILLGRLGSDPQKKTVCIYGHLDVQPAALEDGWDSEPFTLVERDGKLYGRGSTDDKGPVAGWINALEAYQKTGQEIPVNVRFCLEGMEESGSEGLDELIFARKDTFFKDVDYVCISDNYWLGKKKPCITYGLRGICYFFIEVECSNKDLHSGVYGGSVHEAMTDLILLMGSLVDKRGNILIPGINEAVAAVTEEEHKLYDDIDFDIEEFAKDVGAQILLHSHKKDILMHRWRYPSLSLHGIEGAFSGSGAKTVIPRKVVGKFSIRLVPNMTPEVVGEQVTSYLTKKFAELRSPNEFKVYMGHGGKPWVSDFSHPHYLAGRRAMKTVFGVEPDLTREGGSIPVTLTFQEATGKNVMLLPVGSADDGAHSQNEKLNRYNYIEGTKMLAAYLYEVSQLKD
UniProt A5YKK6, whole entry, looked up: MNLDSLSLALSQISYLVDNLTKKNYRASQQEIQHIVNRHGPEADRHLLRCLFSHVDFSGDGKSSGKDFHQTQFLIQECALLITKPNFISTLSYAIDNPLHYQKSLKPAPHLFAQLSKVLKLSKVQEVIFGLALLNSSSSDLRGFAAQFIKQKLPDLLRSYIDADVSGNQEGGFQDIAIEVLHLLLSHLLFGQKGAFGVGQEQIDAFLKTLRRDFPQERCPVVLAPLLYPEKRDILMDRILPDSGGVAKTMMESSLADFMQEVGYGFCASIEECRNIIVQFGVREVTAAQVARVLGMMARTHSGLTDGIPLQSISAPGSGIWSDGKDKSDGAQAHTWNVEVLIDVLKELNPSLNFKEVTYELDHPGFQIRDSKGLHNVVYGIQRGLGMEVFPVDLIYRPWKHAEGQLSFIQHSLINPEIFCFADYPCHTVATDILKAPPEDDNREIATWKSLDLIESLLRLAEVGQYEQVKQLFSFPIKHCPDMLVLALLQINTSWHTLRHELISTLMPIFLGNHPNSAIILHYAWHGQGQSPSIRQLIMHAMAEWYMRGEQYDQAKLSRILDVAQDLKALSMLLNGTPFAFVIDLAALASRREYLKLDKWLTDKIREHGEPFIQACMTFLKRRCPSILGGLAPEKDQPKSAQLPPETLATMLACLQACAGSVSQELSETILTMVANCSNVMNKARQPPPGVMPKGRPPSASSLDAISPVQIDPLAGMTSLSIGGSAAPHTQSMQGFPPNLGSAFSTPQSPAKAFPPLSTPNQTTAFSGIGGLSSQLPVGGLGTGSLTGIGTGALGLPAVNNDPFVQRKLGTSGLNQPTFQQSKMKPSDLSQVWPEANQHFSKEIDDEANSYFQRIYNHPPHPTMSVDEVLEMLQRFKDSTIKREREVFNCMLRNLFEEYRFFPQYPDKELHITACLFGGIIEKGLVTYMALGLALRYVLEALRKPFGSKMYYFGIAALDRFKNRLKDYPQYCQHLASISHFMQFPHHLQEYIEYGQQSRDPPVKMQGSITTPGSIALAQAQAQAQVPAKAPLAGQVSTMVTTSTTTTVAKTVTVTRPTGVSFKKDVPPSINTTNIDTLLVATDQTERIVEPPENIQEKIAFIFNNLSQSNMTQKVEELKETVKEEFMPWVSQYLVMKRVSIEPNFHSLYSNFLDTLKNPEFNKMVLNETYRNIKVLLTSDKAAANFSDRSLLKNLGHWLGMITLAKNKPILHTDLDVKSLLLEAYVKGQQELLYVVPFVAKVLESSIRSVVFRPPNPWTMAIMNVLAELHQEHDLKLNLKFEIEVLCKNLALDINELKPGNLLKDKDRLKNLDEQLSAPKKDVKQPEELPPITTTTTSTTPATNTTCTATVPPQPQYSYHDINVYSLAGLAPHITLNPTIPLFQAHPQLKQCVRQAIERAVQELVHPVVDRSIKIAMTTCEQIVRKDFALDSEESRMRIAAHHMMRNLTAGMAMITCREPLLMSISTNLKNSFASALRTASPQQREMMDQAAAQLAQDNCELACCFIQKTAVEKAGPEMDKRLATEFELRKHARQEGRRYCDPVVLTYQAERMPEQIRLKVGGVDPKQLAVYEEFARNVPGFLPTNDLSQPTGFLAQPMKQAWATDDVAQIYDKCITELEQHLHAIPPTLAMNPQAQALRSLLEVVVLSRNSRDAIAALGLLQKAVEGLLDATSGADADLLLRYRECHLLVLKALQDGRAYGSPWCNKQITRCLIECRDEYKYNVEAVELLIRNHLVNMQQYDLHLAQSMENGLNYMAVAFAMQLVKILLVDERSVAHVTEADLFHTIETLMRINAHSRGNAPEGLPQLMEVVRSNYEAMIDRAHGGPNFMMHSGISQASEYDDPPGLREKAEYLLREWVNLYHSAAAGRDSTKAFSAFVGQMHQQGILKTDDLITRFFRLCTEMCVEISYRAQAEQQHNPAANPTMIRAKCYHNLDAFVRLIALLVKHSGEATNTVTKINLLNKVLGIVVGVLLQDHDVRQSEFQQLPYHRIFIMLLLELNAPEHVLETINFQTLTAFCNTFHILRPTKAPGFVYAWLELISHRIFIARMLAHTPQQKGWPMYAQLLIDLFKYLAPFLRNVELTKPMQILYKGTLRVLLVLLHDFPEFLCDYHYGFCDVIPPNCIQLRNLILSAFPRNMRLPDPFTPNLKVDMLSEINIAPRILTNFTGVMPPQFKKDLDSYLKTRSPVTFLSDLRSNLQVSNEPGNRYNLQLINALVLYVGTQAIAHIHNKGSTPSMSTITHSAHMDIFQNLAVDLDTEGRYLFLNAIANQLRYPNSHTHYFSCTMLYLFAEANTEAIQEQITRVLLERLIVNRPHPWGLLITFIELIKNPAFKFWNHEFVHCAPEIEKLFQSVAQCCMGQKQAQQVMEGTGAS
UniProt Q9NRG0: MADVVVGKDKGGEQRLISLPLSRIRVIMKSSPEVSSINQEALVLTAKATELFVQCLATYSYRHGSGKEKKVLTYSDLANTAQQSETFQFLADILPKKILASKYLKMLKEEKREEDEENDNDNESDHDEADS
UniProt Q96FZ7: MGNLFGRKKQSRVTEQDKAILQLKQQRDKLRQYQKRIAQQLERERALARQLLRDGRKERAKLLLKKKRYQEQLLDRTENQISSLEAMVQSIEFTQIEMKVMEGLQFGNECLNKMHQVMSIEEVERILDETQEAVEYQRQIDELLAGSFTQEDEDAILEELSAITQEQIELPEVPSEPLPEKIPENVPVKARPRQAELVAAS
UniProt P30085: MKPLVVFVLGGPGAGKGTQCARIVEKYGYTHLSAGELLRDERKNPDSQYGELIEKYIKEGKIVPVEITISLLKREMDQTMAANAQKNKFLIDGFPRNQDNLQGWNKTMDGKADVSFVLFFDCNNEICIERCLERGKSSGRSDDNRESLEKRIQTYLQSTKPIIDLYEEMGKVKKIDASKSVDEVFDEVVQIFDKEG
UniProt O43405: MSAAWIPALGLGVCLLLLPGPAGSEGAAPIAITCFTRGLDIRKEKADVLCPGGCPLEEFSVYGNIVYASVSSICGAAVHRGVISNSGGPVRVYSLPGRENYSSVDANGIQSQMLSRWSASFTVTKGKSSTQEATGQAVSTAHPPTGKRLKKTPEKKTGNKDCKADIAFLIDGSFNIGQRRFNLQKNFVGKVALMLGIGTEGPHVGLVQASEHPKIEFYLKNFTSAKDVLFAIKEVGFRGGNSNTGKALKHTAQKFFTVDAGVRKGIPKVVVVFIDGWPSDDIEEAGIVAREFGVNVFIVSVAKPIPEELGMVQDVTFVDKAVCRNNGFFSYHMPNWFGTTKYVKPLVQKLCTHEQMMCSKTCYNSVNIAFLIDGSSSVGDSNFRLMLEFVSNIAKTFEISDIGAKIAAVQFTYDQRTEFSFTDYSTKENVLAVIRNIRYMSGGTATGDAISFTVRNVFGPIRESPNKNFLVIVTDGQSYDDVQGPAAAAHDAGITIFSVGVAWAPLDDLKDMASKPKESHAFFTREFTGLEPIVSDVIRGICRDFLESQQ
UniProt O14578, whole entry, looked up: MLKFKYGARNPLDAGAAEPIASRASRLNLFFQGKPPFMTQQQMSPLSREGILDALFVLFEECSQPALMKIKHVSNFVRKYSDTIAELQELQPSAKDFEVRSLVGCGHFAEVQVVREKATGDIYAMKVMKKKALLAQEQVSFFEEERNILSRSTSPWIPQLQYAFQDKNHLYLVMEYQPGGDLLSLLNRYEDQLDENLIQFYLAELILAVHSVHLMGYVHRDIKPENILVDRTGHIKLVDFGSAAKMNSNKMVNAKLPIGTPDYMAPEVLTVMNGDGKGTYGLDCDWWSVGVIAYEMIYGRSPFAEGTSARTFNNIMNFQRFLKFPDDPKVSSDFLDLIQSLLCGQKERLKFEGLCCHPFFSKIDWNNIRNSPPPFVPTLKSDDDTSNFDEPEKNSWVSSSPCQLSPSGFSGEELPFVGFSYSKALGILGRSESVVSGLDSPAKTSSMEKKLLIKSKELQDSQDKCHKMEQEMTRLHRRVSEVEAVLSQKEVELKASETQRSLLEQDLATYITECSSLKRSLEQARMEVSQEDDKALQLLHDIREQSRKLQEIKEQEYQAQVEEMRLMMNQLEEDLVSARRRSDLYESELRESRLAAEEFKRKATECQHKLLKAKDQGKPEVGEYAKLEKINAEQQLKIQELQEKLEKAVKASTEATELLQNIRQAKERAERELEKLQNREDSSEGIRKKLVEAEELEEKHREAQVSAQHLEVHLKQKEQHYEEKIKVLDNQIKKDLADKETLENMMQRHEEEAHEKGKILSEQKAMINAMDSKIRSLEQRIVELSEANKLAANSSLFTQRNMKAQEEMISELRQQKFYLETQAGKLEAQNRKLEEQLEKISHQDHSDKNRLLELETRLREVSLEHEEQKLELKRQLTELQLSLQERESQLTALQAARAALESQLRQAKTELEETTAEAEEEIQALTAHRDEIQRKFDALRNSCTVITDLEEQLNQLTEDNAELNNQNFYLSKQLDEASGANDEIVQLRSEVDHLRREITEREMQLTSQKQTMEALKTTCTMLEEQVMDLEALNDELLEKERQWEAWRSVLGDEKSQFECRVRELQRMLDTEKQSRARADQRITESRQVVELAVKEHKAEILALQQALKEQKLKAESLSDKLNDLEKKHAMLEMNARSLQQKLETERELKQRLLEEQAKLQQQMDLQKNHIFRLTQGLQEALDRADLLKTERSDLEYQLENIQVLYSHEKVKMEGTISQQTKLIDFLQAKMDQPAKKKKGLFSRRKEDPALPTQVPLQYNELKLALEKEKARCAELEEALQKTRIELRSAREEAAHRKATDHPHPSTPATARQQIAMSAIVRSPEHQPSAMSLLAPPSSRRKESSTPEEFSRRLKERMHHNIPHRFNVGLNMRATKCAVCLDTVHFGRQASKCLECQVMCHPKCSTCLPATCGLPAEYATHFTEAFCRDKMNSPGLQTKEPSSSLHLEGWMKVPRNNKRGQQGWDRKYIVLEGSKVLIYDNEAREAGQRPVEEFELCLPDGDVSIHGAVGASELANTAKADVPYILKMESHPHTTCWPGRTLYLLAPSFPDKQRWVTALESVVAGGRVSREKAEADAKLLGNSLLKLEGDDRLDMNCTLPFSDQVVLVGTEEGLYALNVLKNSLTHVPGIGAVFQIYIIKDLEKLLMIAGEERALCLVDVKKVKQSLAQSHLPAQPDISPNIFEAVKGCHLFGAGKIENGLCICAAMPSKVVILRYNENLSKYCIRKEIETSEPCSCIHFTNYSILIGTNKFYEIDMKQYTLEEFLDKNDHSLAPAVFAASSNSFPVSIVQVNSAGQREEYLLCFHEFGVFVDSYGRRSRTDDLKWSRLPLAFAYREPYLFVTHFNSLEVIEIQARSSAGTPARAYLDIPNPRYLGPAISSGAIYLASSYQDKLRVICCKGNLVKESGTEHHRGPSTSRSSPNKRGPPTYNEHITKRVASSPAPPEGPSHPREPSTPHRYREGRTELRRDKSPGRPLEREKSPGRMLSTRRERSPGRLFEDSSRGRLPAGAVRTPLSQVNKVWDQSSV
UniProt O76071: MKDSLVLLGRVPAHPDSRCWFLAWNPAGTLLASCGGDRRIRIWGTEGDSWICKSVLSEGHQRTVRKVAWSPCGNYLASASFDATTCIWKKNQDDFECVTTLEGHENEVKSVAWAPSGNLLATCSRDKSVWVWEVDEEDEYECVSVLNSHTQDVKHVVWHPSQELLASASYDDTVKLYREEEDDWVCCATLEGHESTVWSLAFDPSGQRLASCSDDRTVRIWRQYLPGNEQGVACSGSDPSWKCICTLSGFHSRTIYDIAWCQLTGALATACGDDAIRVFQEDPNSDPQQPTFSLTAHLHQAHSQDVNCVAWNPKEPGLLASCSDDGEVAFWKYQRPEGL

Columns and labels:
Assay in all cases: log2 fold change, soluble protein after heating vs DMSO (PISA); higher = thermal stabilisation; K562 cells, 10 uM, 30 min; active = over 0.2 and 3.5 SD of the protein, either way, in both replicates (recomputed)
[1] = compound: C#Cc1cccc(Nc2ncnc3cc(OCCOC)c(OCCOC)cc23)c1 [erlotinib]
Summary of the method: (§1)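 Thermal stability values are relative to control samples and come from duplicates. They are expressed as log2 fold changes. For measurement, K562 cells (2×10^6 cells/mL) received 10 μM compound for 30 min, and aliquots were heated for 3 min over 48°C-58°C, pooled, and extracted at 4°C in PBS with 0.5% NP-40. Soluble protein, the supernatant after 21,000xg for 90 min, was quantified by TMTpro 16plex LC-MS/MS with equalised channel sums.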

[2] = compound: C/C(=N\NC(=O)C1=CC(=CC=C1)S(=O)(=O)N2CCOCC2)/C3=C(C=CC(=C3)Cl)O
Summary of the method: as §1

[3] = compound: C1=CC(=C(C=C1Cl)C2=NC3=NC=CN=C3C(=N2)NC4=CC=NC=C4)F
Summary of the method: as §1

[4] = compound: C1=CC(=CC=C1C2=NC3=C(N2)C=C(C=C3)C(=O)N)OC4=CC=C(C=C4)Cl
Summary of the method: as §1

[5] = compound: C1=CC2=C(C=CC(=C2)/C=C\3/C(=O)NC(=NCC4=CC=CS4)S3)N=C1
Summary of the method: as §1

[6] = compound: C1=CC2=NC=CN=C2C=C1/C=C/3\C(=O)NC(=O)S3
Summary of the method: as §1

[7] = compound: C1=CC=C(C=C1)C2=NC(=C(N2)C3=CC=NC=C3)C4=CC(=C(C=C4)Cl)O
Summary of the method: as §1

[8] = compound: C1=CC=C2C(=C1)C3=NNC4=CC=CC(=C43)C2=O
Summary of the method: as §1

[9] = compound: C1CCN(C1)C(=O)NC2=CC=CC(=C2)NC3=NC=C(C(=N3)NCCC4=CN=CN4)Br
Summary of the method: as §1

[10] = compound: C1CN(CCC1(CC2=CC=C(C=C2)Cl)N)C3=NC=NC4=C3C=CN4
Summary of the method: as §1

[11] = compound: C1COCCN1CCN2C3=CC=CC=C3N=C2NC(=O)C4=CC(=CC=C4)[N+](=O)[O-] [IRAK-1-4 Inhibitor I]
Summary of the method: as §1

[12] = compound: C=CC(=O)N1CCC[C@@H](n2nc(-c3ccc(Oc4ccccc4)cc3)c3c(N)ncnc32)C1 [ibrutinib]
Summary of the method: as §1

[13] = compound: CC(=O)c1cnc2ccc(-c3cc(Cl)c(O)c(Cl)c3)nc2c1N[C@H]1CC[C@H](CN(C)C)CC1
Summary of the method: as §1

[14] = compound: CC(C)(C)Cn1c(N)nc2ccc(-c3[nH]c(C(C)(C)C)nc3-c3ccc(F)cc3)nc21 [ralimetinib]
Summary of the method: as §1

[15] = compound: CC(C)(O)CC(=O)NCCn1ccc2ncnc(Nc3ccc(Oc4cccc(C(F)(F)F)c4)c(Cl)c3)c21
Summary of the method: as §1

[16] = compound: CC(C)C1=C2N=C(C=C(N2N=C1)NCC3=CC=CC=C3)NCCCCCCN
Summary of the method: as §1

[17] = compound: CC(C)C[C@@H](C=O)NC(=O)[C@H](CC(C)C)NC(=O)[C@H](CC(C)C)NC(=O)OCc1ccccc1
Summary of the method: as §1

[18] = compound: CC(C)N(C[C@H]1O[C@@H](n2cnc3c(N)ncnc32)[C@H](O)[C@@H]1O)[C@H]1C[C@@H](CCc2nc3cc(C(C)(C)C)ccc3[nH]2)C1 [pinometostat]
Summary of the method: as §1

[19] = compound: CC1=C(C(CC(=O)N1)C2=CC=C(C=C2)C(F)(F)F)C(=O)NC3=C(C=C4C(=C3)C=NN4)F
Summary of the method: as §1

[20] = compound: CC1=C(C2=C(C=C1)C(=O)C3=CC=CC=C3N2CCCN)C
Summary of the method: as §1

Measured: log2 fold change

COA3 (UniProt Q9Y2R0)
inactive: [1] -0.002 | [2] -0.001 | [3] 0.073 | [4] -0.043 | [5] -0.046 | [6] 0.069 | [7] -0.052 | [8] 0.029 | [9] -0.035 | [10] 0.006 | [11] 0.008 | [12] -0.004 | [13] 0.011 | [14] -0.08 | [15] 0.057 | [16] 0.039 | [17] 0.009 | [18] -0.087 | [19] 0.016 | [20] -0.014

CIRBP isoform 2 (UniProt Q14011)
inactive: [1] -0.056 | [2] -0.076 | [3] -0.219 | [4] 0 | [5] -0.02 | [6] 0.006 | [7] 0.009 | [8] 0 | [9] 0.035 | [10] -0.092 | [11] -0.083 | [12] 0.024 | [13] 0.061 | [14] 0.19 | [15] 0.055 | [16] 0.096 | [17] 0.115 | [18] 0.082 | [19] 0.011 | [20] -0.094

COA6 isoform 2 (UniProt Q5JTJ3)
inactive: [1] 0.012 | [2] 0.022 | [3] 0.045 | [4] 0.007 | [5] 0.023 | [6] 0.062 | [7] -0.053 | [8] -0.108 | [9] 0.047 | [10] 0.02 | [11] 0.043 | [12] 0.036 | [13] 0.019 | [14] -0.071 | [15] 0.045 | [16] 0.059 | [17] -0.026 | [18] -0.04 | [20] -0.004

CNDP2 (UniProt Q96KP4)
inactive: [1] 0.035 | [2] -0.099 | [3] 0.058 | [4] 0.022 | [5] 0.091 | [6] -0.024 | [7] 0.064 | [8] 0.058 | [9] 0.023 | [10] 0.072 | [11] 0.098 | [12] 0.002 | [13] -0.01 | [14] 0.07 | [15] -0.005 | [16] -0.011 | [17] -0.029 | [18] -0.035 | [20] 0.042

CNOT1 (UniProt A5YKK6)
inactive: [1] 0.013 | [2] 0.102 | [3] -0.003 | [4] -0.007 | [5] 0.035 | [6] 0.001 | [7] 0.014 | [8] -0.004 | [9] -0.009 | [10] -0.008 | [11] -0.07 | [12] -0.024 | [13] -0.029 | [14] 0.028 | [15] -0.063 | [16] -0.101 | [17] 0.039 | [18] 0.027 | [20] 0.063

Reprinted at random: 2 records from the list, in no set order.
CNOT1 (UniProt A5YKK6)
inactive: [1] 0.013 | [2] 0.102 | [3] -0.003 | [4] -0.007 | [5] 0.035 | [6] 0.001 | [7] 0.014 | [8] -0.004 | [9] -0.009 | [10] -0.008 | [11] -0.07 | [12] -0.024 | [13] -0.029 | [14] 0.028 | [15] -0.063 | [16] -0.101 | [17] 0.039 | [18] 0.027 | [20] 0.063

COA6 isoform 2 (UniProt Q5JTJ3)
inactive: [1] 0.012 | [2] 0.022 | [3] 0.045 | [4] 0.007 | [5] 0.023 | [6] 0.062 | [7] -0.053 | [8] -0.108 | [9] 0.047 | [10] 0.02 | [11] 0.043 | [12] 0.036 | [13] 0.019 | [14] -0.071 | [15] 0.045 | [16] 0.059 | [17] -0.026 | [18] -0.04 | [20] -0.004

Following part

CMTR1 (UniProt Q8N1G2)
inactive: [1] -0.005 | [2] 0.105 | [3] 0.031 | [4] 0.013 | [5] 0.048 | [6] 0.012 | [7] 0.012 | [8] 0.036 | [9] 0.01 | [10] 0.018 | [11] -0.007 | [12] -0.011 | [13] -0.014 | [14] -0.026 | [15] -0.024 | [16] -0.011 | [17] -0.002 | [18] -0.029 | [20] 0.169

CHRAC1 (UniProt Q9NRG0)
inactive: [1] 0.055 | [2] 0.101 | [3] 0.129 | [4] -0.023 | [5] 0.058 | [6] -0.058 | [7] -0.031 | [8] 0.034 | [9] -0.024 | [10] 0.046 | [11] -0.032 | [12] -0.009 | [13] -0.065 | [14] -0.061 | [15] -0.037 | [16] -0.07 | [17] -0.102 | [18] -0.008 | [19] 0.052 | [20] 0.021

CHMP6 (UniProt Q96FZ7)
inactive: [1] -0.039 | [2] 0.041 | [3] 0.121 | [4] -0.026 | [5] 0.012 | [6] 0.039 | [7] -0.01 | [8] -0.072 | [9] 0.002 | [10] 0.094 | [11] 0.045 | [12] 0.005 | [13] 0.01 | [14] 0.029 | [15] -0.031 | [16] 0.061 | [17] -0.085 | [18] -0.012 | [19] 0.041 | [20] 0.004

CMPK1 (UniProt P30085)
inactive: [1] -0.042 | [2] 0.085 | [3] 0.123 | [4] -0.029 | [5] -0.015 | [6] 0.019 | [7] -0.019 | [8] 0.046 | [9] 0.058 | [10] 0.031 | [11] 0.04 | [12] 0.021 | [13] -0.008 | [14] -0.014 | [15] -0.029 | [16] 0.044 | [17] 0.003 | [18] 0 | [19] -0.01 | [20] 0.084

COCH (UniProt O43405)
inactive: [1] -0.083 | [2] -0.028 | [3] -0.044 | [4] 0.007 | [5] -0.098 | [6] 0.007 | [7] -0.002 | [8] -0.072 | [9] -0.043 | [10] -0.101 | [11] 0.001 | [12] 0.058 | [13] 0.045 | [14] 0.041 | [16] 0.021 | [17] -0.019 | [18] 0.043 | [20] -0.353
active: [15] 0.331

CIT isoform 4 (UniProt O14578)
active: [13] -0.462
inactive: [1] -0.015 | [2] 0.045 | [3] -0.044 | [4] 0 | [5] -0.176 | [6] 0.13 | [7] -0.027 | [8] -0.002 | [9] -0.037 | [10] 0.021 | [11] -0.013 | [12] -0.057 | [14] -0.008 | [15] -0.077 | [16] -0.021 | [17] 0.045 | [18] -0.005 | [20] 0.118

CIAO1 (UniProt O76071)
inactive: [1] 0.021 | [2] 0.005 | [3] 0.086 | [4] -0.025 | [5] -0.029 | [6] 0.008 | [7] -0.02 | [8] 0.038 | [9] -0.012 | [10] 0.026 | [11] -0.032 | [12] 0.004 | [13] -0.026 | [14] -0.05 | [15] -0.009 | [16] 0.009 | [17] -0.073 | [18] -0.015 | [19] 0.04 | [20] 0.096

COL15A1 (UniProt P39059)
inactive: [1] -0.112 | [2] -0.103 | [3] -0.009 | [4] 0.044 | [5] 0.098 | [6] -0.066 | [7] 0.01 | [8] -0.066 | [9] 0.018 | [10] 0.12 | [11] -0.156 | [12] 0.014 | [13] 0.374 | [14] 0.105 | [15] -0.002 | [16] -0.039 | [17] 0.131 | [18] -0.055 | [19] -0.146 | [20] 0.115

CINP isoform 3 (UniProt Q9BW66)
inactive: [1] 0.006 | [2] -0.039 | [3] -0.007 | [4] 0.016 | [5] 0.033 | [6] 0.032 | [7] -0.022 | [8] -0.006 | [9] 0.001 | [10] 0.032 | [11] 0.043 | [12] 0.07 | [13] 0.02 | [14] -0.05 | [15] -0.029 | [16] 0.097 | [17] 0.029 | [18] 0.007 | [19] 0.062 | [20] 0.045

CIR1 (UniProt Q86X95)
inactive: [1] -0.008 | [2] -0.035 | [3] -0.254 | [4] 0.055 | [5] -0.054 | [6] -0.029 | [7] -0.144 | [8] -0.016 | [9] -0.008 | [10] 0.002 | [11] -0.023 | [12] 0.121 | [13] -0.05 | [14] 0.083 | [15] 0.128 | [16] 0.198 | [17] 0.175 | [18] 0.169 | [20] 0.022

CHURC1-FNTB (UniProt B4DL54)
inactive: [1] 0.039 | [2] -0.032 | [3] 0.1 | [4] -0.013 | [5] -0.074 | [6] 0.119 | [7] 0.013 | [8] -0.045 | [9] 0.049 | [10] 0.091 | [11] -0.007 | [12] 0.001 | [13] 0.032 | [14] -0.08 | [15] -0.067 | [16] 0.015 | [17] 0.015 | [18] 0.07 | [20] -0.088
